From article PMC5401905, “Regulation of Inducible Potassium Transporter KdpFABC by the KdpD/KdpE Two-Component System in Mycobacterium smegmatis”
A negative result means that nothing was seen under these conditions. At least one verdict rests on a figure or table, not on a statement of the authors. Protein sequences can lack the tags named with them. Construct, isoform or probe ends are uncertain for at least one entry. The comparison behind a weaker result is the experiment's own reference, which may not be listed here.

Molecular target: T1, KdpE (Mycobacterium smegmatis) (UniProt A0R399)
T1 sequence (looked up, limits assumed): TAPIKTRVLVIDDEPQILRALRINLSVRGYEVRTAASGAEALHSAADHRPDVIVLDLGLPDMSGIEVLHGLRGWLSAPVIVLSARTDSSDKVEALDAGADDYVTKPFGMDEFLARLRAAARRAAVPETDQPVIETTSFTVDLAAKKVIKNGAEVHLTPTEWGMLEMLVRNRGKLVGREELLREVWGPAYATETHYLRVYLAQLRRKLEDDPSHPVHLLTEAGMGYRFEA
Experiment: EMSA
Details: 10 mM Tris pH 7.5 (20 C), 100 mM KCl, 1 mM EDTA, 0.1 mM DTT, 5% glycerol, 0.010 mg/mL BSA, 0.5 mM Na2ATP, 25 C, 1 h, 6% native PAGE in 0.25x TBE, recombinant protein, protein details: 6xHis (pET28a)

[1] = 0.5 mM ATP, 22 bp stated as minimum

| Sequence | binding result [1] | binding result (0.5 mM ATP) | other results |
| --- | --- | --- | --- |
| CCCGAGGCGCCGGCGCCCGGCCGAGCAGGTGCGTCGGGTGTCGGCAGGCGCGGCAGCCCGCGGAGCAAGCAGGGACATGAGCTTCGTCGAGTGGGTCACCCCTCGAACATCCATCAACCGAGCCATGACGACGAGTGTCCTGGCGGAGTCTTGGCCGCTGCTGTACAAACCTTGACGCCGCACTGACAGTCCGTCGGGAACCGCCTGTGCGCCGGCTTCGAACAAACGGTGTCAAATACGGCCGCCGCACCGTAAAGAAACCATCAAGGCCGCGTTCGCGGTCCTGAACTGGGCAGATCC (double strand) [PkdpF 300-bp probe] | – | – | binding result (no ATP, label: 6-FAM, probe letters rebuilt from the primers and the genome): binds more weakly |
| CCGTAAAGAAACCATCA (double strand) [FPC-17] | no binding | – | – |
| CCGTAAAGAAACCATCAAGG (double strand) [FPC-20] | no binding | – | – |
| CGTAAAGAAACCATCAAGGCCGCGTT (double strand) [FPC-26] | – | no binding | – |
| GTAAAGAAACCATCAAGGCCGCGT (double strand) [FPC-24] | – | no binding | – |
